Test results reported in publication PMC9515143, “Phosphorylation of Jhd2 by the Ras-cAMP-PKA(Tpk2) pathway regulates histone modifications and autophagy” (Nature Communications, 2022).
These are yes or no findings as the source states them, for the method shown. Binding seen in cells or lysates may run through a third protein. These calls come from enrichment with a bait or labelling near it, and not all partners need be listed. For part of these data: Tags and fused reporters may be left off the sequences shown.

Experiments:
Test in all cases: affinity purification with mass spectrometry; yeast lysate in TAP binding buffer (40 mM HEPES-KOH pH 7.5, 350 mM NaCl, 0.1% Tween-20), anti-FLAG IP resin or IgG beads 4 °C 4 hr, on-bead trypsin digestion, LC-MS
[1] = target: T1, Tpk2-TAP (S. cerevisiae (budding yeast)) (UniProt P06245)
T1 sequence: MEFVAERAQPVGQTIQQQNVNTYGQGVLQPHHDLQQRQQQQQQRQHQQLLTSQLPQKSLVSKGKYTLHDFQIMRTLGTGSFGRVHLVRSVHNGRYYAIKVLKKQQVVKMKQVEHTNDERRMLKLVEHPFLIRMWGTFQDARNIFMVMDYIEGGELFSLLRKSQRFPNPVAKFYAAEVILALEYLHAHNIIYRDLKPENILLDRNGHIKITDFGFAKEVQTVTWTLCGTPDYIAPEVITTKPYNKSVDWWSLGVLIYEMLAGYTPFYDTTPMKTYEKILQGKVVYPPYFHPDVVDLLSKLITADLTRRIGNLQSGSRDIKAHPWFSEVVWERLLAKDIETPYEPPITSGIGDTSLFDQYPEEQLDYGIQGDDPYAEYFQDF

[2] = target: T2, Jhd2-FLAG (S. cerevisiae (budding yeast)) (UniProt P47156)
T2 sequence (chain, phosphoserine at 321 and 340 (phosphorylated in vivo by Tpk2; extent not stated)): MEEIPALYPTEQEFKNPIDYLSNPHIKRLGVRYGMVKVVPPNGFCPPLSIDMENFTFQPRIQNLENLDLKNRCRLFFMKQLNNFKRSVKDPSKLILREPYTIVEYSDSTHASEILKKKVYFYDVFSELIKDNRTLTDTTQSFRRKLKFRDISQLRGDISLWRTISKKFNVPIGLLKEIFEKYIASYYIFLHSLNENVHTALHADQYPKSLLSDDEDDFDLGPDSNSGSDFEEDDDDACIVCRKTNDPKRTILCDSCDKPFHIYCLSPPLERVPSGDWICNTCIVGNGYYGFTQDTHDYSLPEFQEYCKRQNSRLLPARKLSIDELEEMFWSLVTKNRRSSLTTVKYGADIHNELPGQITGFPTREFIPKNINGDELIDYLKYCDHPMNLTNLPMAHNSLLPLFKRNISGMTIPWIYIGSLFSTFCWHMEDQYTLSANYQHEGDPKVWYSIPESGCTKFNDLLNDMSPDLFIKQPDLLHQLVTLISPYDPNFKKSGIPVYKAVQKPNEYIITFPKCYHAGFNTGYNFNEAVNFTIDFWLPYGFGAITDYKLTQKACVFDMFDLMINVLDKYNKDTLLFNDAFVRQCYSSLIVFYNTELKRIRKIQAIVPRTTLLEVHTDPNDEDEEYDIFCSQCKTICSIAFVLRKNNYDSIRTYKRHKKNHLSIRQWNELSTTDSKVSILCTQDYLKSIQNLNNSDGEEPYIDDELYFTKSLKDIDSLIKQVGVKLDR

[3] = target: T3, Jhd2-S321A, S340A-FLAG (S. cerevisiae (budding yeast)) (UniProt P47156)
T3 sequence: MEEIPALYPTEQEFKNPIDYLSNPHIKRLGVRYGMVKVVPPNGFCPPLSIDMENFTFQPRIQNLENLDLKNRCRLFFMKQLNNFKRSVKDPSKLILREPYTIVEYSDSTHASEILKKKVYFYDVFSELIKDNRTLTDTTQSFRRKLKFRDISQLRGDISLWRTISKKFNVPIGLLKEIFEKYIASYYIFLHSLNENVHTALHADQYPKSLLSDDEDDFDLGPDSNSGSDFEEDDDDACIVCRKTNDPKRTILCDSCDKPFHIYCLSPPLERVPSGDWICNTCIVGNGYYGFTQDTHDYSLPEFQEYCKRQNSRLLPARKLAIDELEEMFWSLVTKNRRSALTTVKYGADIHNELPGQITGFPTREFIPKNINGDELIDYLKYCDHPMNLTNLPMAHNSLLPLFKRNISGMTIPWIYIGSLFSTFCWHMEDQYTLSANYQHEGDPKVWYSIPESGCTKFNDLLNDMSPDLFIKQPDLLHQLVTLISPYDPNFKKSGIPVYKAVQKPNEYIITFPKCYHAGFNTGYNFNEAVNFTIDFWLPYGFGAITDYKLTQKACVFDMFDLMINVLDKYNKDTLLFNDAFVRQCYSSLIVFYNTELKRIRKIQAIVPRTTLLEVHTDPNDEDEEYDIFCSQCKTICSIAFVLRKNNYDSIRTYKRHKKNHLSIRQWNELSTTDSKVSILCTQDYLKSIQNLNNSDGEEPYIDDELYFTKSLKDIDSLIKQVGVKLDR

In the case of “Jhd2 (in Tpk2-TAP cells) (from UniProt P47156 1-728) (enzyme)”, the binding [1] is reported as “binds”.

B1: Tpk2 (enzyme, UniProt P06245 1-380)
chain: MEFVAERAQPVGQTIQQQNVNTYGQGVLQPHHDLQQRQQQQQQRQHQQLLTSQLPQKSLVSKGKYTLHDFQIMRTLGTGSFGRVHLVRSVHNGRYYAIKVLKKQQVVKMKQVEHTNDERRMLKLVEHPFLIRMWGTFQDARNIFMVMDYIEGGELFSLLRKSQRFPNPVAKFYAAEVILALEYLHAHNIIYRDLKPENILLDRNGHIKITDFGFAKEVQTVTWTLCGTPDYIAPEVITTKPYNKSVDWWSLGVLIYEMLAGYTPFYDTTPMKTYEKILQGKVVYPPYFHPDVVDLLSKLITADLTRRIGNLQSGSRDIKAHPWFSEVVWERLLAKDIETPYEPPITSGIGDTSLFDQYPEEQLDYGIQGDDPYAEYFQDF
For B1, the binding [2] was “binds”.

B2: Rpd3 (enzyme, UniProt P32561 1-433)
chain: MVYEATPFDPITVKPSDKRRVAYFYDADVGNYAYGAGHPMKPHRIRMAHSLIMNYGLYKKMEIYRAKPATKQEMCQFHTDEYIDFLSRVTPDNLEMFKRESVKFNVGDDCPVFDGLYEYCSISGGGSMEGAARLNRGKCDVAVNYAGGLHHAKKSEASGFCYLNDIVLGIIELLRYHPRVLYIDIDVHHGDGVEEAFYTTDRVMTCSFHKYGEFFPGTGELRDIGVGAGKNYAVNVPLRDGIDDATYRSVFEPVIKKIMEWYQPSAVVLQCGGDSLSGDRLGCFNLSMEGHANCVNYVKSFGIPMMVVGGGGYTMRNVARTWCFETGLLNNVVLDKDLPYNEYYEYYGPDYKLSVRPSNMFNVNTPEYLDKVMTNIFANLENTKYAPSVQLNHTPRDAEDLGDVEEDSAEAKDTKGGSQYARDLHVEHDNEFY
With B2 the binding [2] was “binds” and the binding [3] was “binds”.

B3: Tpk1 (enzyme, UniProt P06244 1-397)
chain: MSTEEQNGGGQKSLDDRQGEESQKGETSERETTATESGNESKSVEKEGGETQEKPKQPHVTYYNEEQYKQFIAQARVTSGKYSLQDFQILRTLGTGSFGRVHLIRSRHNGRYYAMKVLKKEIVVRLKQVEHTNDERLMLSIVTHPFIIRMWGTFQDAQQIFMIMDYIEGGELFSLLRKSQRFPNPVAKFYAAEVCLALEYLHSKDIIYRDLKPENILLDKNGHIKITDFGFAKYVPDVTYTLCGTPDYIAPEVVSTKPYNKSIDWWSFGILIYEMLAGYTPFYDSNTMKTYEKILNAELRFPPFFNEDVKDLLSRLITRDLSQRLGNLQNGTEDVKNHPWFKEVVWEKLLSRNIETPYEPPIQQGQGDTSQFDKYPEEDINYGVQGEDPYADLFRDF
For B3, the binding [2] was “binds”.

B4: Tpk3 (enzyme, UniProt P05986 1-398)
chain: MYVDPMNNNEIRKLSITAKTETTPDNVGQDIPVNAHSVHEECSSNTPVEINGRNSGKLKEEASAGICLVKKPMLQYRDTSGKYSLSDFQILRTLGTGSFGRVHLIRSNHNGRFYALKTLKKHTIVKLKQVEHTNDERRMLSIVSHPFIIRMWGTFQDSQQVFMVMDYIEGGELFSLLRKSQRFPNPVAKFYAAEVCLALEYLHSKDIIYRDLKPENILLDKNGHIKITDFGFAKYVPDVTYTLCGTPDYIAPEVVSTKPYNKSVDWWSFGVLIYEMLAGYTPFYNSNTMKTYENILNAELKFPPFFHPDAQDLLKKLITRDLSERLGNLQNGSEDVKNHPWFNEVIWEKLLARYIETPYEPPIQQGQGDTSQFDRYPEEEFNYGIQGEDPYMDLMKEF
In the case of B4, the binding [2] is reported as “binds”.
